Assay results taken from patent publication US20090123488A1, “Compositions and methods for the treatment and prophylaxis of Alzheimer's disease” (priority 2006, published 2009).
Some results were stated once for a whole list of compounds, not compound by compound.

System: Aβ15
Type: in vivo
Settings: mice, 1 mg IP Day 0 and Week 2, serum Week 4, no added adjuvant, ELISA on Aβ15

| Substance | geometric mean titers (GMT) |
| --- | --- |
| Pam2C-SSQYIKANSKFIGITELDAEFRHDSGYEVHHQ-amide (CSSQYIKANSKFIGITELSDAEFRHDSGYEVHHQ; N-terminal Pam2Cys lipid; C-terminal amide) [Pam2-QYIK-AB1-15] | greater than 50,000 |
| Pam3C-SSQYIKANSKFIGITELDAEFRHDSGYEVHHQ-amide (CSSQYIKANSKFIGITELSDAEFRHDSGYEVHHQ; N-terminal Pam3Cys lipid; C-terminal amide) [Pam3-QYIK-AB1-15] | greater than 50,000 |
| QYIKANSKFIGITELSDAEFRHDSGYEVHHQ-amide (QYIKANSKFIGITELSDAEFRHDSGYEVHHQ; C-terminal amide) [QYIK-AB1-15, reference compound] | less than 5000 |
